The target of the test is WAVE2 (UniProt Q9Y6W5). Nature of the test: co-IP; total cellular lysates (1 mg) of 293T cells cotransfected with GFP-FL-mDia2, WAVE2 and Abi1, alone or in combination; immunoprecipitated with an anti-WAVE2 antibody; immunoblot.

The chains behind the UniProt entries cited, without tags or fusion partners.
UniProt Q9Y6W5: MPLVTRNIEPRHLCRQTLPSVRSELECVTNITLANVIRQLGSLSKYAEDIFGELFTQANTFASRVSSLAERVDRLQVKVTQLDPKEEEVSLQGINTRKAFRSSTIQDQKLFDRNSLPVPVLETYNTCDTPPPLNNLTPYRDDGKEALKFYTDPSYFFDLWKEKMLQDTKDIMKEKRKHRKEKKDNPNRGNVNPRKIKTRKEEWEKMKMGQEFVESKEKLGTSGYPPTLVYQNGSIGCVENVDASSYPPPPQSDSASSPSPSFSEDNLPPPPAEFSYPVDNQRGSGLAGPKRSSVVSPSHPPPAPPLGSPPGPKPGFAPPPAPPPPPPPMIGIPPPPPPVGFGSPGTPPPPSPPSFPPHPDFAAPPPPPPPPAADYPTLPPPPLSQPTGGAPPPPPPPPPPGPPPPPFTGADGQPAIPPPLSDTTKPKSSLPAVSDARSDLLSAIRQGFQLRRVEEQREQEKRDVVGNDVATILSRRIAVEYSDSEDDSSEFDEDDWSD
UniProt Q9Z207: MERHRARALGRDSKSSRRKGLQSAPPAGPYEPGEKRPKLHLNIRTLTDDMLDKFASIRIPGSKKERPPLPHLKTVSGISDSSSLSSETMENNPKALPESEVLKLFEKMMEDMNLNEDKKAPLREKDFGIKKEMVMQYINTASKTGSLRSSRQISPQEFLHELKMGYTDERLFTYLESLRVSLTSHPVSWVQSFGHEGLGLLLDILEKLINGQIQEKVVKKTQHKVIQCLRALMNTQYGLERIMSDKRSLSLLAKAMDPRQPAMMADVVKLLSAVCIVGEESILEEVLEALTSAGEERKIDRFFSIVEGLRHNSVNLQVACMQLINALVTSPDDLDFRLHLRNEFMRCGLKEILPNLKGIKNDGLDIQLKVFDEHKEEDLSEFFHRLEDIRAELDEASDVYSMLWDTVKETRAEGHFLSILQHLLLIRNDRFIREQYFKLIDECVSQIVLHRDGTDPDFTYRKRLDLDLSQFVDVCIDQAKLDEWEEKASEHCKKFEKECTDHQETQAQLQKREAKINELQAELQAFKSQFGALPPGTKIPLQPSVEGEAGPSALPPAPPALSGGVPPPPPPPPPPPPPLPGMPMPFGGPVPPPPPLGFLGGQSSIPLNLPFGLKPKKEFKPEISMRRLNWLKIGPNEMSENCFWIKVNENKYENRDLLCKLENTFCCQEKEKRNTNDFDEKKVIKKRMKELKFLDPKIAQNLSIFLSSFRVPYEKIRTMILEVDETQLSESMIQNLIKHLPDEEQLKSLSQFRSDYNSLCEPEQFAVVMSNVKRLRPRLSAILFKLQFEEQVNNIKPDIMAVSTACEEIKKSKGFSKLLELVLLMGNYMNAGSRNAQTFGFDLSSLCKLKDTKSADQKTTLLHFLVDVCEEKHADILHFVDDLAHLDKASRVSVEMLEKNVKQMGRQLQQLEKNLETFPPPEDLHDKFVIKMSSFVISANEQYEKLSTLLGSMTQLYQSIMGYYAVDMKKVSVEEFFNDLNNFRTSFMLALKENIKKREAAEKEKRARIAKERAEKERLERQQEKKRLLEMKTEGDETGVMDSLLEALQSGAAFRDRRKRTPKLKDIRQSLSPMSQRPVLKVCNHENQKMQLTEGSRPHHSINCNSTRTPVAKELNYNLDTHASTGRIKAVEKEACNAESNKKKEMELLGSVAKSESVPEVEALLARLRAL

No constants are given. Whether binding was seen depends on the method and setting. Binding seen in cells or lysates may run through a third protein.

For the substance “GFP-FL-mDia2 (full-length mDia2 fused to GFP) (from UniProt Q9Z207 1-1171)”, the binding result is “no binding”.

These data come from PMC2229861.
